# Assay results published in publication PMC5996148.
# Values joined by “and” are separate entries in the source; they are usually repeats but may differ in a detail not shown here. Identical values can stand only once. The list shows a part of the results. For some of these results: The source does not settle which construct or isoform was used.
# How the values were obtained:
# Assay in all cases: protein microarray (ProtoArray v5.0), streptavidin-Alexa Fluor 647
# Settings in all cases: 3'-biotin; 20 mM Tris (pH 7.5), 5 mM MgCl2, 100 mM KCl, 0.1% Tween-20, A/T-rich and random oligonucleotide blockers; temperature not stated; high values mean tight binding
# ARL5A (human) = tested on: ARL5A (human)
# ARL6 (human) = tested on: ARL6 (human)
# ARL8B (human) = tested on: ARL8B (human)
# ARL9 (human) = tested on: ARL9 (human)
# ARPC5 = ARPC5 (UniProt O15511)
# ASB11 (human) = tested on: ASB11 (human)
# ASB6 (human) = tested on: ASB6 (human)
# ASMTL (human) = tested on: ASMTL (human)
# ASNS = target: T1, ASNS (UniProt P08243)
# T1 sequence: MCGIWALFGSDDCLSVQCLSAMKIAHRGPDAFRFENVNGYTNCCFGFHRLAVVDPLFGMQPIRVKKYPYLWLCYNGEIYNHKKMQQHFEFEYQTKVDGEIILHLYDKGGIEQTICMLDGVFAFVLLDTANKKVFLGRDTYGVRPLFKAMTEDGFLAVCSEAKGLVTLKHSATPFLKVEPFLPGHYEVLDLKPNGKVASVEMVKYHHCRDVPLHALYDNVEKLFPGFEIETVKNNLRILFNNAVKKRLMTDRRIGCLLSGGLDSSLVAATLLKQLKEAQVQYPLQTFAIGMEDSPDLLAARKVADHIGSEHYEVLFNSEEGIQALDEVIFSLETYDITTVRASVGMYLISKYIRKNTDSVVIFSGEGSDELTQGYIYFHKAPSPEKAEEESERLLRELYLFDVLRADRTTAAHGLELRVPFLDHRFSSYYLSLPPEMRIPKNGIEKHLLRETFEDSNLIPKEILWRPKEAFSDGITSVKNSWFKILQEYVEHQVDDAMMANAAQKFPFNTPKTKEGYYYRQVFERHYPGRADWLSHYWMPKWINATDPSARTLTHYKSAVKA
# ASXL1 = ASXL1 (UniProt Q8IXJ9)
sequence,measurement,setting,value
GGTGACAGGGGTATGGGGAGGGG [G4-2 biotinylated (Ct1)],binding signal,ARL5A (human),-0.386 z-score
same,binding signal,ARL6 (human),-0.376 z-score
same,binding signal,ARL8B (human),-0.377 z-score
same,binding signal,ARL9 (human),-0.371 z-score
same,binding signal,ARPC5,-0.36 z-score
same,binding signal,ASB11 (human),-0.371 z-score
same,binding signal,ASB6 (human),-0.375 z-score
same,binding signal,ASMTL (human),-0.386 z-score and -0.391 z-score
same,binding signal,ASNS,-0.397 z-score
same,binding signal,ASXL1,6.79 z-score
